Binding data for 1 molecule are collected here from article PMC4256206.

Chains of the proteins cited; added tags and fusions are not shown.
UniProt Q9SP32: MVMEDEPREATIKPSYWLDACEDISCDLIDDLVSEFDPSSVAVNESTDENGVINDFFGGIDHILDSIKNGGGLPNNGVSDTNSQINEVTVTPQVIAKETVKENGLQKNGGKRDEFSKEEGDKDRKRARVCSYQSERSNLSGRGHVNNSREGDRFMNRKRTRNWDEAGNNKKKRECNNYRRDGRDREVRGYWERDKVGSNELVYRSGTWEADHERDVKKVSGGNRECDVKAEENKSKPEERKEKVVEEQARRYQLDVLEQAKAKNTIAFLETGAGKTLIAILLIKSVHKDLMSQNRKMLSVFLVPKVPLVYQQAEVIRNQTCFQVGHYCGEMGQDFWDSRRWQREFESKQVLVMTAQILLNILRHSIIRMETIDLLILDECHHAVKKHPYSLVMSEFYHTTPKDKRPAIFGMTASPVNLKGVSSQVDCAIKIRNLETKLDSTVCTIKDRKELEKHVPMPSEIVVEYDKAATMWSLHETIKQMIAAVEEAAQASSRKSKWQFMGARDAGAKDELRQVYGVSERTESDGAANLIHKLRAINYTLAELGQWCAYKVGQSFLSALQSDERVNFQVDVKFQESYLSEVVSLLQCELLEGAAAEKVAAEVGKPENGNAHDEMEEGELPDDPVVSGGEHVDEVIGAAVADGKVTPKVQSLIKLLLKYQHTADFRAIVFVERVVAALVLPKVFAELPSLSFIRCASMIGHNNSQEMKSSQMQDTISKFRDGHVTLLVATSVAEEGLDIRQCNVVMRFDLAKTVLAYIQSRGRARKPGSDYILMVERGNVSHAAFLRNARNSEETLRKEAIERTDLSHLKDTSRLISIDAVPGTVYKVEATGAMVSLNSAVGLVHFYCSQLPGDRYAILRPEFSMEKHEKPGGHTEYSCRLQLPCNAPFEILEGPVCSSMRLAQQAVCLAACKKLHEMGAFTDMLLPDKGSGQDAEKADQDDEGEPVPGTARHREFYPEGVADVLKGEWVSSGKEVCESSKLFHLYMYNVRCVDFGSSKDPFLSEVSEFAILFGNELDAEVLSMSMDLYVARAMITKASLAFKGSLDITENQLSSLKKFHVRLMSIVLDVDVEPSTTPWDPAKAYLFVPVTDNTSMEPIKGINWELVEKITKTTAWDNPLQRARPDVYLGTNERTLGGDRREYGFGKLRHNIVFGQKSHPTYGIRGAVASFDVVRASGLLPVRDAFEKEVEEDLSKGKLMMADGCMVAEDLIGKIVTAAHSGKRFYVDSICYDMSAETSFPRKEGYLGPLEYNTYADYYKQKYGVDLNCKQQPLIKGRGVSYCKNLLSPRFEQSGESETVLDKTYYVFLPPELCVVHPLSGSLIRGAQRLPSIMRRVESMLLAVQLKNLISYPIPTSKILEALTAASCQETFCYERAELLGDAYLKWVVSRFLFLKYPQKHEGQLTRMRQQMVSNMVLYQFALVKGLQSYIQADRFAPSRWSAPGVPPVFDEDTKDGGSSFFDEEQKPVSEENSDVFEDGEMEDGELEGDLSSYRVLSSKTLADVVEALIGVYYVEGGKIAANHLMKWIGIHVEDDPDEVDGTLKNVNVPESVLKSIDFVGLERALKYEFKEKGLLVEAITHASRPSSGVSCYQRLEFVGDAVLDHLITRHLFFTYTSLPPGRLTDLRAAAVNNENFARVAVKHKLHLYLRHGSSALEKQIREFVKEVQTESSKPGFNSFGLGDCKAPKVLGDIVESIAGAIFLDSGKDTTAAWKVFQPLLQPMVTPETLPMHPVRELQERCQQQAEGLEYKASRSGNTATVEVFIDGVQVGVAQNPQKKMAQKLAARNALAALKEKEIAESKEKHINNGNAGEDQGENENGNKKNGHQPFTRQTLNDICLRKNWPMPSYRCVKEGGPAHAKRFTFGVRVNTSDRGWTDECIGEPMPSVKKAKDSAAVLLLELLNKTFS

One test concerns the target T1, SE-MYC (Arabidopsis) (UniProt Q9ZVD0).
T1 sequence: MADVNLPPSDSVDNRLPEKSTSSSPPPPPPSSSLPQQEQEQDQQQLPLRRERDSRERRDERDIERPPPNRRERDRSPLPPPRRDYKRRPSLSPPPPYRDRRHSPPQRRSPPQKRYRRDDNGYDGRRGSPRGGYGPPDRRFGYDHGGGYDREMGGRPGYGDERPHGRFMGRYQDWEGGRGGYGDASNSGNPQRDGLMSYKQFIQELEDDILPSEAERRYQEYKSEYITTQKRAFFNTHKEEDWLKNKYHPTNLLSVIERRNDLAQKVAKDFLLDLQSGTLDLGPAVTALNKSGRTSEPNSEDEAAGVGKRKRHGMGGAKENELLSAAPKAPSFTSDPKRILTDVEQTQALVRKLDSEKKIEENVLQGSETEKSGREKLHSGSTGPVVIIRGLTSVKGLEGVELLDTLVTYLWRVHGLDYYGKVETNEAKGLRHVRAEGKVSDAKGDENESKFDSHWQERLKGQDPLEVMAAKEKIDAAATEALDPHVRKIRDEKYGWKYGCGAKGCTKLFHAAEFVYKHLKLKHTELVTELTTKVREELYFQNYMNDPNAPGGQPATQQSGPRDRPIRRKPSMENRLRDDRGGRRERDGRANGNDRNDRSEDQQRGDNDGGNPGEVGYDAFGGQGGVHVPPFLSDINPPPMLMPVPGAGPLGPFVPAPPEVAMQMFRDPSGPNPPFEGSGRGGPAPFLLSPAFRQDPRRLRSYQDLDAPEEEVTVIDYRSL
In words: co-IP; PRL1-YFP or YFP co-expressed with DCL1-MYC or SE-MYC in N. benthamiana; extracts incubated with anti-YFP or anti-MYC antibodies coupled to protein G agarose beads; western blot. (In general: Immunoblotting shows a protein as a band on a membrane.)

A further test concerns the target DCL1-MYC (Arabidopsis) (UniProt Q9SP32). The test is described as above.

Results are given in words; binding and its absence hold for the method and conditions named. In cells and extracts the contact can be indirect. Some binding calls cover weakened binding; strength is not graded here. Sequences can lack the tags named with a protein.

B1: PRL1-YFP transiently expressed in N. benthamiana (protein, UniProt Q42384 1-486)
chain: MPAPTTEIEPIEAQSLKKLSLKSLKRSLELFSPVHGQFPPPDPEAKQIRLSHKMKVAFGGVEPVVSQPPRQPDRINEQPGPSNALSLAAPEGSKSTQKGATESAIVVGPTLLRPILPKGLNYTGSSGKSTTIIPANVSSYQRNLSTAALMERIPSRWPRPEWHAPWKNYRVIQGHLGWVRSVAFDPSNEWFCTGSADRTIKIWDVATGVLKLTLTGHIEQVRGLAVSNRHTYMFSAGDDKQVKCWDLEQNKVIRSYHGHLSGVYCLALHPTLDVLLTGGRDSVCRVWDIRTKMQIFALSGHDNTVCSVFTRPTDPQVVTGSHDTTIKFWDLRYGKTMSTLTHHKKSVRAMTLHPKENAFASASADNTKKFSLPKGEFCHNMLSQQKTIINAMAVNEDGVMVTGGDNGSIWFWDWKSGHSFQQSETIVQPGSLESEAGIYAACYDNTGSRLVTCEADKTIKMWKEDENATPETHPINFKPPKEIRRF
B1: the binding result with SE-MYC (Arabidopsis) and with DCL1-MYC (Arabidopsis) was “binds” throughout.
